# In the supplement of paper PMC3334620:
# The full ranking holds about 33,000 sequences; the median of “E-score (-0.5 to 0.5)” is about -0.0014, and the highest 2% start at about 0.25. This is one part of the list.
# Target: T1, Cad1 (UniProt P24813)
# T1 sequence: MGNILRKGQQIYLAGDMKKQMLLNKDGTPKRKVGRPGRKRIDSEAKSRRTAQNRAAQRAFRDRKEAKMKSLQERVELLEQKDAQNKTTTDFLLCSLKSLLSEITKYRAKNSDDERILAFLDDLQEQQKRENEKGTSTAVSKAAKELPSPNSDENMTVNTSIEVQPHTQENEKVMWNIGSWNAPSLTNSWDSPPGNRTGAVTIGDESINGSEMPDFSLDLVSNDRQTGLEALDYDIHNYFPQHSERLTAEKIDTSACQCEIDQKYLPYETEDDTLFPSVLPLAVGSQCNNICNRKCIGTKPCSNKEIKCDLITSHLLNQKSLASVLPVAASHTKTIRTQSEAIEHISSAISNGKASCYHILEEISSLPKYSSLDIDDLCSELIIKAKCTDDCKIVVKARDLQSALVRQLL
# Test: PBM E-score (8-mer binding enrichment) (E-score (-0.5 to 0.5)); higher = stronger / more preferred TF binding
# Conditions: protein concentration: 100 nM; construct: GST-full length
# In short: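 GST-tagged yeast TFs (full-length or DNA-binding domain) were made by PURExpress in vitro transcription/translation and applied at about 100-200 nM to universal all-10-mer Agilent arrays. The arrays were made double-stranded by primer extension, on fresh or once-stripped slides. Bound protein was detected with fluorescent anti-GST, and scans were normalised with masliner. Each ungapped eight-base word, pooled with its reverse complement, received an E-score (modified Wilcoxon-Mann-Whitney statistic) from the Universal PBM Analysis Suite.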
row,Sequence,PBM E-score
1,GTCGAAGA,-0.0249
2,GGGCACAA,-0.151
3,ACGGTCCG,-0.201
4,CGCCCTAC,-0.0285
5,AACAACTC,-0.0423
6,GCGTGTAA,0.00701
7,CGTAGACG,-0.105
8,CGACGTAC,-0.0332
9,ACGTCGAG,0.00107
10,GAACGTGC,-0.102
11,GAGAGTGC,-0.208
12,ATATGAGA,0.0644
13,CCCATTAG,-0.3
14,ACTAATTG,0.197
15,GGCAAACA,-0.00107
16,CCAGATCC,-0.0837
17,CGTGCAAA,0.145
18,GTATGCAA,0.0691
19,ATAAACAT,0.0914
20,GAATTGGC,-0.057
21,TAACCTAA,-0.0237
22,CTGAAGAA,-0.18

row,Sequence,PBM E-score
1,CTCACCAC,0.00332
2,ACCGTGTA,0.00454
3,CAATCCAC,0.0588
4,TAAGCTGA,0.208
5,AACCGGTA,-0.0764
6,TAAATTCA,0.0134
7,CCACCAGA,0.0137
8,GTACATCA,0.105
9,ATCGAATA,-0.00799
10,AGCTGCCT,-0.114
11,TCATATAA,-0.00059
12,AGCTTTAG,-0.0922
13,CCTTGGGC,-0.266
14,CTCTAGAA,-0.234
15,GGGAGAGA,-0.341
16,CGGCACAC,0.0867
17,ACAGCCTG,-0.228
18,CATGATGG,-0.0743
19,CATCGGCC,-0.0158
20,CATATTGC,-0.116
21,GAAGCAGC,-0.19
22,AGGTAGCC,0.00072

# Four neighbouring records out of the list so far, quoted:
row,Sequence,PBM E-score
5,AACCGGTA,-0.0764
6,TAAATTCA,0.0134
7,CCACCAGA,0.0137
8,GTACATCA,0.105

# The listing continues:

row,Sequence,PBM E-score
1,ATGCAAGC,0.00976
2,AAGTAGTG,-0.109
3,ATTGTTGA,0.125
4,ATAACACA,0.149
5,CTGGCAAC,0.00154
6,AGTCAGAA,-0.0213
7,TATCTAGA,-0.0529
8,GGTAGCAA,-0.0853
9,AGTTAGAC,0.0452
10,ATAGATCA,0.167
11,AGAGCTAA,-0.185
12,ACGAAGAG,-0.0102
13,ACCCAACA,-0.141
14,CTTGATTC,0.0981
15,CCGGATGC,-0.114
16,AAGGAGAA,-0.124
17,ATAGTTGA,0.134
18,ATACTCTG,0.0457
19,CTTGAGTA,-0.134
20,ACAGAAGG,-0.17
21,CTAGTAAG,0.203
22,ATCTAATC,0.159

row,Sequence,PBM E-score
1,CAGGCAGC,-0.0777
2,AGATCATC,0.0574
3,ACGCTACT,-0.0733
4,ATTTATAA,0.341
5,CCAATTAG,0.223
6,ATGGGACC,-0.00547
7,CCAGACTA,0.0923
8,CCCCCCAC,-0.455
9,TACATGTA,0.27
10,AGTAACAC,0.141
11,CTCGGGAA,-0.00746
12,CTAGCGCA,0.0505
13,GGTGCCTA,-0.0171
14,CAATACAA,0.0733
15,CACATTTC,0.142
16,CAGAGCTA,-0.252
17,AAAAGATT,0.0172
18,CGCACAAG,0.0424
19,CGGGTACG,-0.17
20,CTTAGCCA,-0.024
